{"source": "the supplement of paper PMC11006884", "compound": "COC(=O)/C=C/c1ccccc1 [methyl cinnamate]", "test": "log2 ratio of iodoacetamide-alkyne labeling of the cysteine site, DMSO over compound (competition); higher = stronger covalent engagement of the cysteine by the compound, active = 1 or more", "details": "500 µM; treatment time 1 h; system: HEK293T cell lysate", "method_in_brief": "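HEK293T lysate (2 mg/mL) was incubated with electrophile (500 µM) or vehicle for 1 h at ambient temperature and then with iodoacetamide alkyne for 1 h. Labelled proteins were clicked to sCIP-TMT reagents, pooled, digested, enriched on streptavidin and measured by Orbitrap Eclipse LC-MS/MS with FAIMS, with FragPipe quantification. The per-cysteine log2 competition ratio is mean control-channel reporter intensity over mean compound-channel reporter intensity. Across three replicates with duplicate channels, cysteines quantified in only one replicate were excluded.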", "note": "The targets with a hit were mostly taken out for another list; the other results follow. The data scatter; read single values as rough. This is a selection; strong and weak results do not stand in their true shares.", "data": [{"target": "UniProt P63167_C24", "values": [{"measurement": "log2 ratio of iodoacetamide-alkyne labeling", "value": "inactive: 0.0233"}]}, {"target": "CLTC C926 (UniProt Q00610)", "values": [{"measurement": "log2 ratio of iodoacetamide-alkyne labeling", "value": "inactive: 0.199"}]}, {"target": "HNRNPU C453 (UniProt Q00839)", "values": [{"measurement": "log2 ratio of iodoacetamide-alkyne labeling", "value": "inactive: -0.071"}]}, {"target": "CLTC C328 (UniProt Q00610)", "values": [{"measurement": "log2 ratio of iodoacetamide-alkyne labeling", "value": "inactive: -0.298"}]}, {"target": "UniProt P63167_C56", "values": [{"measurement": "log2 ratio of iodoacetamide-alkyne labeling", "value": "inactive: 0.0658"}]}, {"target": "KIF23 C135 (UniProt Q02241)", "values": [{"measurement": "log2 ratio of iodoacetamide-alkyne labeling", "value": "inactive: 0.604"}]}, {"target": "UniProt P62917_C90", "values": [{"measurement": "log2 ratio of iodoacetamide-alkyne labeling", "value": "inactive: -0.291"}]}, {"target": "GRB2 C32 (UniProt P62993)", "values": [{"measurement": "log2 ratio of iodoacetamide-alkyne labeling", "value": "inactive: 0.218"}]}, {"target": "EIF4G2 C255 (UniProt P78344)", "values": [{"measurement": "log2 ratio of iodoacetamide-alkyne labeling", "value": "inactive: 0.133"}]}, {"target": "YWHAZ C25 (UniProt P63104)", "values": [{"measurement": "log2 ratio of iodoacetamide-alkyne labeling", "value": "inactive: 0.104"}]}, {"target": "FOXK1 C439 (UniProt P85037)", "values": [{"measurement": "log2 ratio of iodoacetamide-alkyne labeling", "value": "inactive: 0.188"}]}, {"target": "UniProt P68363_C315", "values": [{"measurement": "log2 ratio of iodoacetamide-alkyne labeling", "value": "inactive: 0.0853"}]}, {"target": "EEF1A1 C411 (UniProt P68104)", "values": [{"measurement": "log2 ratio of iodoacetamide-alkyne labeling", "value": "inactive: 0.322"}]}, {"target": "EEF1A1 C363 (UniProt P68104)", "values": [{"measurement": "log2 ratio of iodoacetamide-alkyne labeling", "value": "inactive: 0.0273"}]}, {"target": "OTUD4 C903 (UniProt Q01804)", "values": [{"measurement": "log2 ratio of iodoacetamide-alkyne labeling", "value": "inactive: 0.468"}]}, {"target": "MRPS9 C233 (UniProt P82933)", "values": [{"measurement": "log2 ratio of iodoacetamide-alkyne labeling", "value": "inactive: 0.296"}]}, {"target": "MRPS11 C186 (UniProt P82912)", "values": [{"measurement": "log2 ratio of iodoacetamide-alkyne labeling", "value": "inactive: -0.0493"}]}, {"target": "UniProt P78527_C4106", "values": [{"measurement": "log2 ratio of iodoacetamide-alkyne labeling", "value": "inactive: 0.297"}]}, {"target": "UniProt P62913_C72", "values": [{"measurement": "log2 ratio of iodoacetamide-alkyne labeling", "value": "inactive: 0.0632"}]}, {"target": "OGDH C802 (UniProt Q02218)", "values": [{"measurement": "log2 ratio of iodoacetamide-alkyne labeling", "value": "inactive: 0.189"}]}, {"target": "SORD C130 (UniProt Q00796)", "values": [{"measurement": "log2 ratio of iodoacetamide-alkyne labeling", "value": "inactive: 0.014"}]}, {"target": "FOXK1 C254 (UniProt P85037)", "values": [{"measurement": "log2 ratio of iodoacetamide-alkyne labeling", "value": "inactive: 0.327"}]}, {"target": "CLTC C736 (UniProt Q00610)", "values": [{"measurement": "log2 ratio of iodoacetamide-alkyne labeling", "value": "inactive: 0.109"}]}, {"target": "UniProt P62851_C59", "values": [{"measurement": "log2 ratio of iodoacetamide-alkyne labeling", "value": "inactive: 0.455"}]}, {"target": "PPIA C115 (UniProt P62937)", "values": [{"measurement": "log2 ratio of iodoacetamide-alkyne labeling", "value": "inactive: 0.0498"}]}, {"target": "RPS27A C145 (UniProt P62979)", "values": [{"measurement": "log2 ratio of iodoacetamide-alkyne labeling", "value": "inactive: 0.298"}]}, {"target": "P86790_C358 (UniProt P86791+P86790)", "values": [{"measurement": "log2 ratio of iodoacetamide-alkyne labeling", "value": "inactive: 0.105"}]}, {"target": "FOXK1 C665 (UniProt P85037)", "values": [{"measurement": "log2 ratio of iodoacetamide-alkyne labeling", "value": "inactive: 0.366"}]}, {"target": "UniProt P62910_C91", "values": [{"measurement": "log2 ratio of iodoacetamide-alkyne labeling", "value": "inactive: 0.265"}]}, {"target": "UniProt P84103_C6", "values": [{"measurement": "log2 ratio of iodoacetamide-alkyne labeling", "value": "inactive: 0.0188"}]}, {"target": "GNAS C174 (UniProt P63092)", "values": [{"measurement": "log2 ratio of iodoacetamide-alkyne labeling", "value": "inactive: -0.595"}]}, {"target": "UniProt P84090_C33", "values": [{"measurement": "log2 ratio of iodoacetamide-alkyne labeling", "value": "inactive: 0.131"}]}, {"target": "RPS27A C121 (UniProt P62979)", "values": [{"measurement": "log2 ratio of iodoacetamide-alkyne labeling", "value": "inactive: 0.0802"}]}, {"target": "SPTBN1 C604 (UniProt Q01082)", "values": [{"measurement": "log2 ratio of iodoacetamide-alkyne labeling", "value": "inactive: 0.315"}]}, {"target": "UniProt P62834_C141", "values": [{"measurement": "log2 ratio of iodoacetamide-alkyne labeling", "value": "inactive: 0.0632"}]}, {"target": "UniProt P63244_C182", "values": [{"measurement": "log2 ratio of iodoacetamide-alkyne labeling", "value": "inactive: 0.162"}]}, {"target": "TFAP4 C29 (UniProt Q01664)", "values": [{"measurement": "log2 ratio of iodoacetamide-alkyne labeling", "value": "inactive: 0.0196"}]}]}
